{"source": "paper PMC9727977", "about": "“Pharmacokinetics and pharmacodynamics of bioactive compounds in Penyanqing preparation in THP-1 inflammatory cells induced by Lipopolysaccharide” (BMC Complementary Medicine and Therapies, 2022)"}
{"system": "IL-1β production in LPS-induced THP-1 cells", "assay": "Effect of PYQ drug-containing plasma on IL-1β production in LPS-induced THP-1 cells (ELISA) and PK-PD fitting", "assay_type": "cell-based, human", "settings": "PK-PD model; X plasma concentration of the compound, Y IL-1β of THP-1 cells treated with drug-containing plasma"}
{"molecule": "COc1cc(/C=C/C(=O)O)ccc1O", "note": "[FE, ferulic acid]", "fitting equation, effect fitting of blood concentration—IL-1β": "Y = 33.427—1.446 lnX"}
{"molecule": "C[C@@]12C[C@@]3(O)O[C@@H](O1)[C@]1(COC(=O)c4ccccc4)[C@H]3C[C@@]12O[C@@H]1O[C@H](CO)[C@@H](O)[C@H](O)[C@H]1O", "note": "[PE, paeoniflorin]", "fitting equation, effect fitting of blood concentration—IL-1β": "Y = 33.598—1.428 lnX"}
{"molecule": "C[C@@H]1O[C@@H](O[C@H]2C(=O)c3c(O)cc(O)cc3O[C@@H]2c2ccc(O)c(O)c2)[C@H](O)[C@H](O)[C@H]1O", "note": "[AST, astilbin]", "fitting equation, effect fitting of blood concentration—IL-1β": "Y = 33.736—1.448 lnX"}
{"molecule": "O=C(/C=C/c1ccc(O)c(O)c1)O[C@@H]1C[C@](O)(C(=O)O)C[C@@H](O)[C@H]1O", "note": "[CH, chlorogenic acid]", "fitting equation, effect fitting of blood concentration—IL-1β": "Y = 32.247—1.386 lnX"}
{"molecule": "O=Cc1ccc(O)c(O)c1", "note": "[PRO, protocatechualdehyde]", "fitting equation, effect fitting of blood concentration—IL-1β": "Y = 33.031—1.454 lnX"}
{"molecule": "salvianolic acid B [SAB]", "fitting equation, effect fitting of blood concentration—IL-1β": "Y = 40.971—2.540 lnX"}
